Paper PMC11349179, “Comparative analysis of the LARP1 C-terminal DM15 region through Coelomate evolution” (PLOS ONE, 2024)

Chains of the proteins cited; added tags and fusions are not shown. Chains listed by the source or under a name are the forms on record and can include a tag or linker.
DmREYA R1381E,Y1417A (fruit fly), one chain, as listed by the source R1381E Y1417A: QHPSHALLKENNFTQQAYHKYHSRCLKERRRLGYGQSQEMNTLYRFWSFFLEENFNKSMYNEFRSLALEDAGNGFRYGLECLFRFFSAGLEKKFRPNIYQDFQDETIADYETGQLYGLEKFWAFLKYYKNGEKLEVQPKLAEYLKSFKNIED

Key:
Assay in all cases: EMSA
[1] = target: DrREYA (zebrafish) (UniProt F1R0U5); settings: 587-3594-fold range vs WT over the three orthologs, value only in Fig 4E; 5' m7G cap (Vaccinia capping); EMSA: 20 mM Tris-HCl pH 8, 150 mM NaCl, 10% glycerol, 1 mM DTT, 0.5 ug tRNA, 1 ug BSA, pM RNA (95 C, snap cooled), 0.5-1 h on ice; native 7% PAGE, 0.5X TBE; recombinant protein; label: 32P in cap
[2] = tested on: HsREYA R840E,Y883A (Homo sapiens); settings: 587-3594-fold range vs WT over the three orthologs, value only in Fig 4E; 5' m7G cap (Vaccinia capping); EMSA: 20 mM Tris-HCl pH 8, 150 mM NaCl, 10% glycerol, 1 mM DTT, 0.5 ug tRNA, 1 ug BSA, pM RNA (95 C, snap cooled), 0.5-1 h on ice; native 7% PAGE, 0.5X TBE; recombinant protein; protein details: His6-MBP removed by TEV; label: 32P in cap
[3] = tested on: DmREYA R1381E,Y1417A (fruit fly); settings: 587-3594-fold range vs WT over the three orthologs, value only in Fig 4E; 5' m7G cap (Vaccinia capping); EMSA: 20 mM Tris-HCl pH 8, 150 mM NaCl, 10% glycerol, 1 mM DTT, 0.5 ug tRNA, 1 ug BSA, pM RNA (95 C, snap cooled), 0.5-1 h on ice; native 7% PAGE, 0.5X TBE; recombinant protein; protein details: His6-MBP removed by TEV; label: 32P in cap

Measured: binding result

CUUUUGCCAUUGUCAGCCGACGAAGUGCUUUAACCCAAACUA [DmRPL30 42-mer, capped]
binds more weakly: all assays above

Weaker means in comparison with the reference protein, sequence or condition of that experiment. For part of these data: Construct, isoform or probe ends are uncertain for at least one entry.
